Results from PMC11773390.
Results are given in words; binding and its absence hold for the method and conditions named. In cells and extracts the contact can be indirect. Some binding calls cover weakened binding; strength is not graded here. Values belong to the binder of their own block, whether it stands above or below them.

Legend:
Flag-STING, Q86WV6 = assay: co-IP; Flag-STING-THLE2 cells after OGD-rep (oxygen-glucose deprivation and reperfusion) treatment, with or without DMF; co-immunoprecipitation; conditions: remark: other sources report otherwise
STING, Q86WV6 = assay: co-IP; HEK293T cells transfected with the indicated plasmids for 12 h, then treated with or without DMF (50 µM) for 12 h; co-immunoprecipitation; conditions: remark: other sources report otherwise

binding (Flag-STING, Q86WV6): binds | binding (STING, Q86WV6): binds
B1: TBK1, Q9UHD2 1-729 (protein)
chain: MQSTSNHLWLLSDILGQGATANVFRGRHKKTGDLFAIKVFNNISFLRPVDVQMREFEVLKKLNHKNIVKLFAIEEETTTRHKVLIMEFCPCGSLYTVLEEPSNAYGLPESEFLIVLRDVVGGMNHLRENGIVHRDIKPGNIMRVIGEDGQSVYKLTDFGAARELEDDEQFVSLYGTEEYLHPDMYERAVLRKDHQKKYGATVDLWSIGVTFYHAATGSLPFRPFEGPRRNKEVMYKIITGKPSGAISGVQKAENGPIDWSGDMPVSCSLSRGLQVLLTPVLANILEADQEKCWGFDQFFAETSDILHRMVIHVFSLQQMTAHKIYIHSYNTATIFHELVYKQTKIISSNQELIYEGRRLVLEPGRLAQHFPKTTEENPIFVVSREPLNTIGLIYEKISLPKVHPRYDLDGDASMAKAITGVVCYACRIASTLLLYQELMRKGIRWLIELIKDDYNETVHKKTEVVITLDFCIRNIEKTVKVYEKLMKINLEAAELGEISDIHTKLLRLSSSQGTIETSLQDIDSRLSPGGSLADAWAHQEGTHPKDRNVEKLQVLLNCMTEIYYQFKKDKAERRLAYNEEQIHKFDKQKLYYHATKAMTHFTDECVKKYEAFLNKSEEWIRKMLHLRKQLLSLTNQCFDIEEEVSKYQEYTNELQETLPQKMFTASSGIKHTMTPIYPSSNTLVEMTLGMKKLKEEMEGVVKELAENNHILERFGSLTMDGGLRNVDCL

binding (Flag-STING, Q86WV6): binds | binding (STING, Q86WV6): binds
B2: IRF3, Q14653 1-427 (protein)
chain: MGTPKPRILPWLVSQLDLGQLEGVAWVNKSRTRFRIPWKHGLRQDAQQEDFGIFQAWAEATGAYVPGRDKPDLPTWKRNFRSALNRKEGLRLAEDRSKDPHDPHKIYEFVNSGVGDFSQPDTSPDTNGGGSTSDTQEDILDELLGNMVLAPLPDPGPPSLAVAPEPCPQPLRSPSLDNPTPFPNLGPSENPLKRLLVPGEEWEFEVTAFYRGRQVFQQTISCPEGLRLVGSEVGDRTLPGWPVTLPDPGMSLTDRGVMSYVRHVLSCLGGGLALWRAGQWLWAQRLGHCHTYWAVSEELLPNSGHGPDGEVPKDKEGGVFDLGPFIVDLITFTEGSGRSPRYALWFCVGESWPQDQPWTKRLVMVKVVPTCLRALVEMARVGGASSLENTVDLHISNSHPLSLTSDQYKAYLQDLVEGMDFQGPGES
